{
  "source": "PubChem BioAssay AID651784",
  "about": "(National Center for Advancing Translational Sciences (NCATS), 2012)",
  "note": "Inconclusive results, whose numbers are uncertain, are shown with a selection of clear calls. A potency beside an inconclusive call is a rough fit, not a confirmed value. Calls of active or inactive are those of the source. Calls come from the whole dose curve; as a rule, active = well fitted inhibition curve with a large enough effect; inconclusive = small, poorly fitted or top-dose-only effect; inactive = no such curve, though single readings can be large or run the other way. Potency is the fitted concentration of half-maximal effect.",
  "data": [
    {"assay": "Acumen qHTS Assay for Inhibitors of the mTORC1 Signaling Pathway in MEF (Tsc2-/-, p53-/-) Cells: Hit Validation; note: nearly all actives have a fitted effect of over 65% in size", "conditions": "Acumen imaging", "excerpt": "The mammalian target of rapamycin (mTOR) is an intracellular serine/threonine kinase Aberrant regulation of mTOR signaling plays a causative role in a number of human diseases, including cancer, benign tumors such as lymphangioleiomyomatosis (LAM) and Tuberous Sclerosis Complex (TSC), and metabolic diseases such as diabetes and obesity. This project aims to identify inhibitors of ribosomal protein S6 (rpS6) phosphorylation. The phosphorylation of rpS6 is a key event downstream of mTOR activation. The assay uses a phospho-specific antibody of phospho-rpS6 to detect inhibitors of mTOR activation. Mutations in the Tsc1 and Tsc2 genes are the underlying genetic lesions responsible for TSC, causing constitutive activation of the mTORC1 pathway and leading to profound effects on cell metabolism. Aberrant metabolism in cancer has recently received significant attention as a target to develop therapeutic agents in the treatment of cancer.1 As Tsc2-/- cells have lost the ability to respond to energy and growth factor deprivation, these cells are unable to properly down regulate cellular biosynthetic processes in response to metabolic stress, and are thus extremely sensitive to glucose deprivation-induced death.2 A central goal of this project is to explore the unique cell survival and metabolic properties of cells with Tsc1 or Tsc2 by screening for compounds that selectively target the Tsc2-/- MEFs by screening both Tsc2-/- and WT MEF cell lines. We hope to better understand these aspects of TSC physiology in order to exploit them for therapeutic benefit.\nNIH Molecular Libraries Probe Production Centers Network [MLPCN]\nNIH Chemical Genomics Center [NCGC]\nAssay Submitter (PI): Blenis, John; Harvard University\nFor quantitative high throughput analysis of mTORC1 signaling, we developed a cell-based assay for immuno-fluorescence based detection of rpS6 phosphorylation on the Acumen Explorer that will be used a platform for the primary small molecule screen. Mouse embryonic fibroblasts (MEFs) are cultured in 1536-well plates using DMEM + 10% FBS. Twenty-four hrs after plating, test compounds (solubilized in DMSO) are delivered and incubated with the cells for 24 hrs at 37 degree Celsius. Following the incubation, media with compound is aspirated and the cells are fixed in 4% paraformaldehyde (PFA) containing PBS + 0.2% TX-100. Next, PFA is aspirated, cells are washed two times with PBS plus 0.2% TX-100 and the cells are blocked for 1 hr at room temperature (blocking buffer: LiCOR Blocking Buffer plus 0.2% TX-100). This is followed by aspiration and staining with Alexa-488 conjugated-phospho-rpS6 Ser235/236 antibody for 2 hours at room temperature (Cell Signaling Technology # 4803, 1:50 dilution in blocking buffer). Cells are washed two times with PBS plus 0.2% TX-100, and stained with 10 uM propidium iodide (PI) for 20-25 minutes for cell number measurement (1:500 dilution of Hoescht staining is also added for IN Cell imaging). The plates are scanned on the Acumen Explorer laser scanning instrument (TTP Labtech) using the 488nm laser for simultaneous excitation of the Alexa-488 and PI. […] Fluorescence emission from the PI stain is selected using a 575-640 nm band pass filter. The normalized phospho-S6 staining is calculated as the ratio of the integrated Alexa 488 intensity divided by the integrated PI intensity for the single concentration rapamycin control (7.5 nM) and DMSO columns. […] Inhibition of the pathway is defined based on the normalized phospho-S6 intensity in rapamycin treated cells. Active cells are defined as those with a normalized phospho-S6 staining above this threshold, and each treatment is reported as the % positive cells in the well, where thresholds are defined by selecting wells with the highest and lowest signal and differentiating between the % non-active and % active populations. In addition to the pathway specific phospho-S6 endpoint, the number of PI stained cells from the Acumen is recorded as a measure of cell viability. […]", "values": [
      {"smiles": "O=C(c1ccccc1)c1ccc2nc(N3CCN(c4ccc(F)cc4)CC3)c3nncn3c2c1", "Potency": "active: 18.5 µM"},
      {"smiles": "COc1ccc(CN2CCN(c3ncnc4sc5c(c34)CCCC5)CC2)cc1F", "Potency": "inconclusive: 23.3 µM [inhibitor, partial curve, poor fit]"},
      {"smiles": "COc1ccc(C(=O)Nc2ccc3c(c2)N(C)C(=O)c2ccccc2S3)cc1OC", "Potency": "active: 10.4 µM"},
      {"smiles": "Cc1c(C(=O)OC2CCCCC2)[nH]c2c1C(=O)CC(c1ccccc1)C2", "note": "(stereo not drawn)", "Potency": "inconclusive: 13.1 µM [inhibitor, partial curve]"},
      {"smiles": "Cc1ccc(NC(=O)CSc2nc(-c3ccco3)cc(C(F)(F)F)n2)c(C)c1", "Potency": "inconclusive: 9.27 µM [inhibitor, partial curve, poor fit]"},
      {"smiles": "Cc1c(Cl)cccc1NC(=O)c1oc2ccc(S(=O)(=O)N3CCC4(CC3)OCCO4)cc2c1C", "Potency": "inconclusive: 26.1 µM [inhibitor, single point]"},
      {"smiles": "Cc1ccccc1-n1c(/C=C/c2c(C)[nH]c3ccccc23)nc2ccccc2c1=O", "Potency": "inconclusive: 7.36 µM [inhibitor, partial curve]"},
      {"smiles": "O=C(Nc1ccc2nc(SCC(=O)N3CCCc4ccccc43)sc2c1)c1ccccc1F", "Potency": "inconclusive: 26.1 µM [inhibitor, single point]"},
      {"smiles": "Cc1cccc(CN2CCc3nc(N4CCN(c5ccccn5)CC4)ncc3C2)c1", "Potency": "inconclusive: 23.3 µM [inhibitor, single point]"},
      {"smiles": "O=C(NCCSc1c(-c2ccc(F)cc2)[nH]c2ccccc12)c1ccc(S(=O)(=O)N2CCOCC2)cc1", "Potency": "inconclusive: 26.1 µM [inhibitor, single point]"},
      {"smiles": "CCCOC(=O)c1c(C)oc2c1cc(NS(=O)(=O)c1ccc(OCC)cc1)c1ccccc12", "Potency": "inconclusive: 3.29 µM [inhibitor, full curve, poor fit]"},
      {"smiles": "CCN(CC)CCSc1nc2ccccc2c(=O)n1-c1ccc(Cl)cc1", "Potency": "inconclusive: 23.3 µM [inhibitor, single point]"},
      {"smiles": "Cc1ccc2c(c1)cc(C(=O)Nc1ccccc1C)n2C", "Potency": "inconclusive: 2.61 µM [inhibitor, full curve, poor fit]"},
      {"smiles": "CCOc1ccc(/C=C/c2nc(C#N)c(NCc3ccccc3)o2)cc1", "Potency": "active: 1.04 µM"},
      {"smiles": "COc1ccc2nc(NC(=O)c3nc(S(=O)(=O)Cc4cccc(C)c4)ncc3Cl)sc2c1", "Potency": "active: 2.07 µM"},
      {"smiles": "O=C(Nc1ccc(Cl)c(C(F)(F)F)c1)c1ccc2c(c1)CCN2S(=O)(=O)c1ccccc1", "Potency": "inconclusive: 5.85 µM [inhibitor, partial curve]"},
      {"smiles": "COc1cccc(C2=CC(c3cc(Br)ccc3F)n3nnnc3N2)c1", "note": "(stereo not drawn)", "Potency": "inconclusive: 1.47 µM [inhibitor, full curve, poor fit]"},
      {"smiles": "CN[C@@H]1C[C@@]2(C)O[C@@H]([C@@H]1OC)n1c3ccccc3c3c4c(c5c6ccccc6n2c5c31)C(=O)NC4", "Potency": "active: 0.0163 µM"},
      {"smiles": "O=C(Nc1ccon1)c1cccn(Cc2cccc(Cl)c2)c1=O", "Potency": "inconclusive: 14.7 µM [inhibitor, single point]"},
      {"smiles": "Cc1ccccc1-n1c(/C=C/c2ccccc2F)nc2ccccc2c1=O", "Potency": "inconclusive: 13.1 µM [inhibitor, partial curve]"},
      {"smiles": "CCOc1ccc(N(C(C)C(=O)Nc2cc(Cl)ccc2OC)S(C)(=O)=O)cc1", "note": "(stereo not drawn)", "Potency": "inconclusive: 2.33 µM [inhibitor, full curve, poor fit]"},
      {"smiles": "COc1cccc(-c2cc(C(=O)Nc3cnn(Cc4ccc(Cl)cc4Cl)c3)no2)c1", "Potency": "inconclusive: 23.3 µM [inhibitor, single point]"},
      {"smiles": "COc1cccc(C(=O)Nc2ccc(-c3cc(C(F)(F)F)nn3-c3ccccc3)cc2)c1", "Potency": "inconclusive: 26.1 µM [inhibitor, single point]"}
    ]}
  ]
}
